The list shows a part of the results. Repeats are few or missing, and single values can be far off.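 The apoptosis fraction was the count of cleaved-PARP antibody-stained nuclei relative to all DNA-stained nuclei, imaged in 1,536-well plates. Screening doses were set so most cells survived, and baseline and induced cleaved-PARP levels vary greatly across cell lines.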
Tested on: CBRC034 (line from a melanoma biopsy)
Test: cleaved PARP positive nuclei fraction relative to DMSO control; melanoma cells; higher = more apoptosis
Conditions: library dose: low library concentration; 72 h

How did the “cleaved PARP positive nuclei fraction” value turn out when CN(c1ncccc1CNc1nc(Nc2ccc3c(c2)CC(=O)N3)ncc1C(F)(F)F)S(C)(=O)=O + CCCS(=O)(=O)Nc1ccc(F)c(C(=O)c2c[nH]c3ncc(Cl)cc23)c1F [PLX4720] (first compound 0.08 µM, partner dose 0.08 µM) was run?
The value was 191%.

How did the “cleaved PARP positive nuclei fraction” value turn out when CCCCCCCCc1ccc(CCC(N)(CO)CO)cc1 [fingolimod] + Nc1nc(F)nc2c1ncn2[C@@H]1O[C@H](CO)[C@@H](O)[C@@H]1O [fludarabine] (first compound 2 µM, partner dose 0.2 µM) was run?
Its value is 49.1%.

CCCCCCCCc1ccc(CCC(N)(CO)CO)cc1 [fingolimod] + CC(=O)c1c(C)c2cnc(Nc3ccc(N4CCNCC4)cn3)nc2n(C2CCCC2)c1=O [palbociclib] (first compound 2 µM, partner dose 0.04 µM) was tested. Which “cleaved PARP positive nuclei fraction” value did it give?
Its value is 37.2%.

With CC(=O)O[C@@]12CO[C@@H]1C[C@H](O)[C@@]1(C)C(=O)[C@H](O)C3=C(C)[C@@H](OC(=O)[C@H](O)[C@@H](NC(=O)OC(C)(C)C)c4ccccc4)C[C@@](O)([C@@H](OC(=O)c4ccccc4)[C@H]21)C3(C)C [Docetaxel] + Cc1cc(Nc2cc(N3CCN(C)CC3)nc(/C=C/c3ccccc3)n2)n[nH]1 [ENMD2076] (first compound 0.0001 µM, partner dose 0.04 µM) as the molecule, how does the “cleaved PARP positive nuclei fraction” value read?
Its value is 331%.

Which “cleaved PARP positive nuclei fraction” value does the source give for CC1(C)CCC(c2ccc(Cl)cc2)=C(CN2CCN(c3ccc(C(=O)NS(=O)(=O)c4ccc(N[C@H](CCN5CCOCC5)CSc5ccccc5)c(S(=O)(=O)C(F)(F)F)c4)cc3)CC2)C1 + CCCS(=O)(=O)Nc1ccc(F)c(C(=O)c2c[nH]c3ncc(Cl)cc23)c1F [PLX4720] (first compound 0.4 µM, partner dose 0.08 µM) here?
The value was 82.4%.

Which “cleaved PARP positive nuclei fraction” value does the source give for CC(=O)O[C@@]12CO[C@@H]1C[C@H](O)[C@@]1(C)C(=O)[C@H](O)C3=C(C)[C@@H](OC(=O)[C@H](O)[C@@H](NC(=O)OC(C)(C)C)c4ccccc4)C[C@@](O)([C@@H](OC(=O)c4ccccc4)[C@H]21)C3(C)C [Docetaxel] + Cn1c(Nc2ccc(C(F)(F)F)cc2)nc2cc(Oc3ccnc(-c4ncc(C(F)(F)F)[nH]4)c3)ccc21 [CHIR265] (first compound 0.0001 µM, partner dose 0.08 µM) here?
The value was 122%.

Cn1sc(=O)n(Cc2ccccc2)c1=O + CC(C)C[C@H](NC(=O)[C@H](Cc1ccccc1)NC(=O)c1cnccn1)B(O)O [Bortezomib] (first compound 0.4 µM, partner dose 0.001 µM) was tested. Which “cleaved PARP positive nuclei fraction” value did it give?
The value was 71.5%.

For COc1ccc(C2=N[C@@H](c3ccc(Cl)cc3)[C@@H](c3ccc(Cl)cc3)N2C(=O)N2CCNC(=O)C2)c(OC(C)C)c1 [Nutlin-3] + C=CCNC1=C2C[C@@H](C)C[C@H](OC)[C@H](O)[C@@H](C)/C=C(\C)[C@H](OC(N)=O)[C@@H](OC)/C=C\C=C(/C)C(=O)NC(=CC1=O)C2=O [Tanespimycin] (first compound 0.1 µM, partner dose 0.002 µM), which “cleaved PARP positive nuclei fraction” value is on record?
Its value is 64.5%.

C[C@@H](N)c1ccc(C(=O)Nc2ccnc3[nH]ccc23)cc1 + CC(C)C[C@H](NC(=O)[C@H](Cc1ccccc1)NC(=O)c1cnccn1)B(O)O [Bortezomib] (first compound 0.4 µM, partner dose 0.001 µM) was tested. Which “cleaved PARP positive nuclei fraction” value did it give?
Its value is 210%.

With C[C@]1(O)C[C@@H](c2nc(-c3ccc4ccc(-c5ccccc5)nc4c3)c3c(N)nccn32)C1 + CS(=O)(=O)CCNCc1ccc(-c2ccc3ncnc(Nc4ccc(OCc5cccc(F)c5)c(Cl)c4)c3c2)o1 [lapatinib] (first compound 0.4 µM, partner dose 0.8 µM) as the molecule, how does the “cleaved PARP positive nuclei fraction” value read?
The value was 91.7%.

For Cn1sc(=O)n(Cc2ccccc2)c1=O + CNC(=O)c1cc(Oc2ccc(NC(=O)Nc3ccc(Cl)c(C(F)(F)F)c3)cc2)ccn1 [sorafenib] (first compound 0.4 µM, partner dose 0.4 µM), which “cleaved PARP positive nuclei fraction” value is on record?
The value was 179%.

With CN(c1ncccc1CNc1nc(Nc2ccc3c(c2)CC(=O)N3)ncc1C(F)(F)F)S(C)(=O)=O + CS(=O)(=O)CCNCc1ccc(-c2ccc3ncnc(Nc4ccc(OCc5cccc(F)c5)c(Cl)c4)c3c2)o1 [lapatinib] (first compound 0.08 µM, partner dose 0.8 µM) as the molecule, how does the “cleaved PARP positive nuclei fraction” value read?
The value was 289%.

CCCCCCCCc1ccc(CCC(N)(CO)CO)cc1 [fingolimod] + CC(=O)O[C@@]12CO[C@@H]1C[C@H](O)[C@@]1(C)C(=O)[C@H](O)C3=C(C)[C@@H](OC(=O)[C@H](O)[C@@H](NC(=O)OC(C)(C)C)c4ccccc4)C[C@@](O)([C@@H](OC(=O)c4ccccc4)[C@H]21)C3(C)C [Docetaxel] (first compound 2 µM, partner dose 0.0001 µM) was tested. Which “cleaved PARP positive nuclei fraction” value did it give?
The value was 108%.

Which “cleaved PARP positive nuclei fraction” value does the source give for CCCCCCCCc1ccc(CCC(N)(CO)CO)cc1 [fingolimod] + COCC[n+]1c2c(n(Cc3cnccn3)c1C)C(=O)c1ccccc1C2=O [YM155] (first compound 2 µM, partner dose 0.0004 µM) here?
Its value is 36.2%.

For NC1(c2ccc(-c3nc4ccn5c(=O)[nH]nc5c4cc3-c3ccccc3)cc2)CCC1 + C[C@@H](Oc1cc(-c2cnn(C3CCNCC3)c2)cnc1N)c1c(Cl)ccc(F)c1Cl [Crizotinib] (first compound 0.4 µM, partner dose 0.2 µM), which “cleaved PARP positive nuclei fraction” value is on record?
Its value is 89.5%.

How did the “cleaved PARP positive nuclei fraction” value turn out when C[C@]1(O)C[C@@H](c2nc(-c3ccc4ccc(-c5ccccc5)nc4c3)c3c(N)nccn32)C1 + Cc1cc(Nc2cc(N3CCN(C)CC3)nc(/C=C/c3ccccc3)n2)n[nH]1 [ENMD2076] (first compound 0.4 µM, partner dose 0.04 µM) was run?
The value was 66%.

Which “cleaved PARP positive nuclei fraction” value does the source give for Cn1sc(=O)n(Cc2ccccc2)c1=O + C[C@@H](Oc1cc(-c2cnn(C3CCNCC3)c2)cnc1N)c1c(Cl)ccc(F)c1Cl [Crizotinib] (first compound 0.4 µM, partner dose 0.2 µM) here?
The value was 70.8%.

With NC(=O)c1ccc(N(C(N)=O)c2c(F)cccc2F)nc1-c1ccc(F)cc1F + CCCCCCCCc1ccc(CCC(N)(CO)CO)cc1 [fingolimod] (first compound 0.4 µM, partner dose 2 µM) as the molecule, how does the “cleaved PARP positive nuclei fraction” value read?
The value was 138%.

With NC1(c2ccc(-c3nc4ccn5c(=O)[nH]nc5c4cc3-c3ccccc3)cc2)CCC1 + CO[C@H]1C[C@@H]2CC[C@@H](C)[C@@](O)(O2)C(=O)C(=O)N2CCCC[C@H]2C(=O)O[C@H]([C@H](C)C[C@@H]2CC[C@@H](OCCO)[C@H](OC)C2)CC(=O)[C@H](C)/C=C(\C)[C@@H](O)[C@@H](OC)C(=O)[C@H](C)C[C@H](C)/C=C/C=C/C=C/1C [everolimus] (first compound 0.4 µM, partner dose 0.02 µM) as the molecule, how does the “cleaved PARP positive nuclei fraction” value read?
Its value is 58.6%.
